Molecular target: Transferrin receptor (TfR) (Homo sapiens) (UniProt P02786)
Assay: pull-down
Settings: SB18, 5 mM MgCl2, 37 C, protein details: captured on Dynabeads TALON (His tag implied), single-stranded DNA, letters built from the parent sequence and the stated change

“AAGTGTCGGTGATTTGCCTCGTCGCT [TfR-01-01-26]”: binds (B = Bn-dU [B=Bn-dU (T) at 4,6,10,13,14,15,19,22,26], purified recombinant protein, variant of TfR-01-01-41).
“AGTGTCGGTGATTTGCCTCGTCGCTCCAATGT [TfR-01-01-32]”: binds (B = Bn-dU [B=Bn-dU (T) at 3,5,9,12,13,14,18,21,25,30,32], purified recombinant protein, variant of TfR-01-01-41).
“GAATTCAAAAGTGTCGGTGATTTGCCTCGTCGCT [TfR-01-01-34]”: binds (B = Bn-dU [B=Bn-dU (T) at 4,5,12,14,18,21,22,23,27,30,34], purified recombinant protein, variant of TfR-01-01-41).
“GAATTCAAAAGTGTCGGTGATTTGCCTCGTCGCTCCAATGT [TfR-01-01-41]”: binds (B = 5-(N-benzylcarboxyamide)-2'-deoxyuridine (Bn-dU) [B=Bn-dU (T) at 4,5,12,14,18,21,22,23,27,30,34,39,41], purified recombinant …).

From US20230250438
